Results are given in words; binding and its absence hold for the method and conditions named. Some entries that bind do so weakly or less than the wild type.
Tests used:
[1] = molecular target: endogenous human PSMA (prostate-specific membrane antigen) expressed on LNCaP human prostate cancer cells (human) (UniProt Q04609); experiment: flow cytometry on PSMA-expressing LNCaP cells, PE anti-human IgG detection, MFI (FL2) against IgG concentration (nM)
[2] = molecular target: endogenous human PSMA (prostate-specific membrane antigen) expressed on LNCaP human prostate cancer cells (human) (UniProt Q04609); experiment: flow cytometry on LNCaP cells

By UniProt entry, the sequences of proteins in these tests, tags left out.
UniProt Q04609: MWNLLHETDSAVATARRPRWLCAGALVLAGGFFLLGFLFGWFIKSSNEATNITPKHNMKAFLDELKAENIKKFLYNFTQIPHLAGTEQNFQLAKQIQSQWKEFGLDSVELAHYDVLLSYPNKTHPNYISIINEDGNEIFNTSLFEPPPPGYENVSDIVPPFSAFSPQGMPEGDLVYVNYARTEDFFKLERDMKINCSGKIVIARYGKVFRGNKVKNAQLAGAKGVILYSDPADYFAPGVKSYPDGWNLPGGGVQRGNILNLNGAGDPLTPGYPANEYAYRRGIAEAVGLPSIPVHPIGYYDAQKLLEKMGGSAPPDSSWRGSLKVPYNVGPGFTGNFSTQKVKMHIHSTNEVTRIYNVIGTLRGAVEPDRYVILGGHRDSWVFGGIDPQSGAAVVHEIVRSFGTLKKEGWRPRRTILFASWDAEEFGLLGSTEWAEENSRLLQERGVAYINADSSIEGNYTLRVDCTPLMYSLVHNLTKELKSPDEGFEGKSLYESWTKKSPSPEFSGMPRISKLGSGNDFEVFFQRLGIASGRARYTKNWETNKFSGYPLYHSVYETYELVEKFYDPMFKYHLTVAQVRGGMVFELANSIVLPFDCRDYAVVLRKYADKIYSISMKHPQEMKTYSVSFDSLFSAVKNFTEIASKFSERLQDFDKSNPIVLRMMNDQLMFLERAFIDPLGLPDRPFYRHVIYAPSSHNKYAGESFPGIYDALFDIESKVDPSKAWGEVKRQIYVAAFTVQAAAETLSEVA

B1: anti-PSMA antibody PSGB11 (antibody, V domains shown)
VH: QVQLVQSGGGLVQPGGSLRLSCAASGFTFSSYWMSWVRQAPGKGLEWVANIKQDGSEKYYVDSVKGRFTISRDNAKNSLYLQMNSLRAEDTAVYYCARVWDYYYDSSGDAFDIWGQGTMVTVSS
VL: EIVLTQSPSTLSASVGDRVTITCRASQSISSWLAWYQQKPGKAPRLLIYAASILQRGVPSRFSGSGSETDFTLTISSLQPEDLATYYCQETYSNLFTFGPGTKVDIK
[1]
  binding: binds
[2]
  binding: binds

Reference: patent US20160326264A1
